From the supplement of paper PMC8104966
The list shows a part of the results. Single values are uncertain here, since repeats match poorly.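 Fusion between ACE2-bearing and full-length-spike-bearing U2OS cells was measured by imaging as the percentage of nuclei with both cell types' fluorescent markers. An inhibitory hit is a non-toxic compound whose fusion z-score is below -3, more than three standard deviations beneath the plate's DMSO wells.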

System: U2OS ACE2 x SARS-CoV-2 spike co-culture
Test: cell-cell fusion (fraction fused) z-score vs plate DMSO control; higher = more fusion
Conditions: 30 µM; 5 h; toxicity class: non-toxic, passed QC

Compound	cell-cell fusion (z-score)
C[Se]CC[C@H](N)C(=O)O.NCCO	inactive: 0.996
COc1cc2c(cc1OC)[C@@H]1C(=O)c3ccc4c(c3O[C@@H]1CO2)CC(C(C)C)O4 (stereo not given in full)	inactive: 1.24
CC(C)CCCC(C)[C@H]1CCC2C3CC=C4C[C@@H](OC(=O)CCC(=O)O)CC[C@]4(C)C3CC[C@@]21C (stereo not given in full)	inactive: 3.22
N#C/C(=C1/SC[C@@H](c2ccc(Cl)cc2Cl)S1)n1ccnc1 [Luliconazole]	inactive: 3.4
Oc1cccc(O)c1	inactive: 2.7
C[C@]12CC[C@@H]3c4ccc(O)cc4C[C@@H](CCCCCCCCCS(=O)CCCC(F)(F)C(F)(F)F)[C@H]3[C@@H]1CC[C@@H]2O (stereo not given in full) [Fulvestrant]	inactive: 2.83
NC1C[C@H]1c1ccccc1.O=S(=O)(O)O (stereo not given in full)	inactive: 2.09
FC(F)(F)c1ccc(/C=C/c2nc(COc3ccc(CCCCn4ccnn4)cc3)co2)cc1 [Mubritinib (TAK 165)]	inactive: 1.09
Cl.N[C@@H](COP(=O)(O)O)C(=O)O	inactive: 2.58
Cl.N[C@@H]1[C@@H](O)[C@H](O)[C@@H](CO)O[C@H]1O	inactive: 0.866
CCCNC(C)C(=O)Nc1ccccc1C (stereo not given) [Prilocaine]	inactive: 2.05
CCOc1cc2ncc(C#N)c(Nc3ccc(OCc4ccccn4)c(Cl)c3)c2cc1NC(=O)/C=C/CN(C)C [Neratinib]	inactive: 1.17
CS(=N)(=O)CC[C@H](N)C(=O)O (stereo partly drawn) [L-Methionine sulfoximine]	inactive: 2.44
CS(=N)(=O)CC[C@H](N)C(=O)O (stereo not given in full)	inactive: 2.02
CC1=C(C(=O)O)N2C(=O)[C@@H](NC(=O)C(N)C3=CCC=CC3)[C@H]2SC1 (stereo not given in full) [Cephradine]	inactive: 0.921
CCOc1ccc(C(=O)c2ccc(OC)c(O)c2O)cc1	inactive: 2.52
CC(=O)OCCN1C(=O)c2c(C)nc3ccc(S(=O)(=O)N4CCOCC4)cc3c2C1=O [Ivachtin]	inactive: 1.36
CCN1CCN(c2ccc(Nc3cc(N(C)C(=O)Nc4c(Cl)c(OC)cc(OC)c4Cl)ncn3)cc2)CC1	inactive: 2.13
CNCC(=O)OCc1cccnc1N(C)C(=O)OC(C)[n+]1cnn(C[C@](O)(c2cc(F)ccc2F)[C@@H](C)c2nc(-c3ccc(C#N)cc3)cs2)c1.O=S(=O)([O-])O (stereo not given in full) [Isavuconazonium sulfate]	active: -4.98
O=C1Nc2ccc(I)cc2C1=Cc1cc(Br)c(O)c(Br)c1	inactive: 6.38
CCOP(=S)(OCC)Oc1cc(C)nc(C(C)C)n1	inactive: 1.12
CN(CCCOc1ccc(Cc2ccccc2)cc1)CCC(=O)O.Cl	inactive: 2.81
Cl.Clc1ccccc1CN1CCc2sccc2C1	inactive: 4.05
COc1cccc(N2CCN(C3=Nc4c(F)cccc4[C@H](CC(=O)O)N3c3cc(C(F)(F)F)ccc3OC)CC2)c1 [Letermovir]	inactive: 1.62

Compound	cell-cell fusion (z-score)
CN1CCc2cc(Cl)c(O)cc2[C@@H](c2ccccc2)C1.Cl	inactive: 2.84
Cl.NC1=NCC2c3ccccc3Cc3ccccc3N12 (stereo not given) [Epinastine hydrochloride]	inactive: 4.75
COc1ccc(NC(=O)c2ccc(C(=N)N(C)C)cc2)c(C(=O)Nc2ccc(Cl)cn2)c1.Cl	inactive: -1.18
C[C@]12CCC(=O)C=C1[C@@H]1C[C@@H]1[C@H]1[C@@H]3[C@@H]4C[C@@H]4[C@@]4(CCC(=O)O4)[C@@]3(C)CC[C@@H]12 [Drospirenone]	inactive: 3.76
O=C(O)CCc1nc(-c2ccccc2)c(-c2ccccc2)o1 [Oxaprozin]	inactive: 2.25
CC1CN(c2c(F)c(N)c3c(=O)c(C(=O)O)cn(C4CC4)c3c2F)C[C@H](C)N1 (stereo not given in full)	inactive: 2.33
CC(C)C[C@H](NC(=O)[C@@H](O)[C@H](N)Cc1ccccc1)C(=O)O.Cl [Bestatin hydrochloride]	inactive: 1.71
Nc1[nH]c(=O)ncc1F [Fluorocytosine]	inactive: 1.3
C=CC(C1=CC(=O)C=CC1=O)c1ccccc1 (stereo not given)	inactive: 2.06
Cc1cc(/C=c2\sc3nc4ccccc4n3c2=O)c(C)n1-c1ccccc1	inactive: 0.0413
CO[C@H]1C[C@@H]2CC[C@@H](C)[C@@](O)(O2)C(=O)C(=O)N2CCCC[C@@H]2C(=O)OC([C@H](C)C[C@@H]2CC[C@@H](OC(=O)C(C)(CO)CO)[C@H](OC)C2)CC(=O)[C@H](C)/C=C(\C)[C@@H](O)[C@@H](OC)C(=O)[C@H](C)C[C@H](C)/C=C/C=C/C=C/1C (stereo not given in full) [Temsirolimus]	inactive: 4.35
Cl.Oc1cc2c(cc1O)C(c1ccccc1)CNCC2 (racemic)	inactive: -2.61
CCOc1cc2ncc(C#N)c(Nc3ccc(OCc4ccccn4)c(Cl)c3)c2cc1NC(=O)/C=C/CN(C)C [Neratinib (HKI-272)]	inactive: -0.807
Cl.NC1(C(=O)O)CCCCC1 [1-Amino-1-cyclohexanecarboxylic acid hydrochloride]	inactive: 2.42
CC(=O)OCC(=O)[C@H]1CCC2C3CC=C4C[C@@H](O)CC[C@]4(C)C3CC[C@@]21C (stereo not given in full)	inactive: 2.02
Cc1onc(-c2ccccc2)c1-c1ccc(S(N)(=O)=O)cc1 [Valdecoxib]	inactive: 1.14
N=C(N)NCCC[C@H](N)C(=O)O [L-Arginine]	inactive: 1.11
CCOc1cc(CC(=O)N[C@@H](CC(C)C)c2ccccc2N2CCCCC2)ccc1C(=O)O	inactive: 3.2
CC/C=C\CC1=C(C)CCC1=O	inactive: 2.05
OC[C@H]1O[C@@H](c2nc3cc(Cl)c(Cl)cc3[nH]2)[C@H](O)[C@@H]1O [D-ribofuranosylbenzimidazole]	inactive: 3.41
CC(=O)O[C@@H]1C[C@@]23C[C@@]24CC[C@H](O[C@@H]2OC[C@@H](O)[C@H](O)[C@H]2O)C(C)(C)C4CCC3[C@]2(C)C[C@@H]3OC4(C[C@@H](C)[C@@H]3[C@@]12C)O[C@H](O)[C@]1(C)O[C@H]41 (stereo not given in full)	inactive: 2.09
C[C@@H](N)Cc1c[nH]cn1.Cl.Cl [Histamine, R(-)-alpha-methyl-, dihydrochloride]	inactive: 2.47
C=CCSCC=C	inactive: 1.91
COc1cc2c(cc1OC)CC(=O)N(CCCN(C)C[C@H]1Cc3cc(OC)c(OC)cc31)CC2.Cl [Ivabradine hydrochloride]	inactive: 2.07

Compound	cell-cell fusion (z-score)
COc1c2ccoc2nc2c(OC)c(OCC(O)C(C)(C)O)ccc12 (stereo not given)	inactive: 2.35
Nc1nc2[nH]c(=O)cnc2c(=O)[nH]1 [Isoxanthopterin]	inactive: 2.58
NCCS(=O)O [Hypotaurine]	inactive: 2.11
O=C1c2ccc(O)c(O)c2C(=O)c2c(O)ccc(O)c21	inactive: 2.78
COc1cc2nc(N3CCN(C(=O)C4CCCO4)CC3)nc(N)c2cc1OC.Cl (stereo not given) [Terazosin hydrochloride]	inactive: 2.66
CC(=O)NNC(=O)N1Cc2ccccc2Oc2ccc(Cl)cc21	inactive: 1.25
CCCc1nn(C)c2c(=O)[nH]c(-c3cc(S(=O)(=O)N4CCN(C)CC4)ccc3OCC)nc12.O=C(O)CC(O)(CC(=O)O)C(=O)O [Sildenafil citrate salt]	inactive: 1.72
C=CCc1ccc(O)c(OC)c1	inactive: 0.484
C[C@]12CCC(=O)C=C1CC[C@@H]1[C@@H]2[C@@H](O)C[C@@]2(C)[C@H]1CC[C@]2(O)C(=O)CO [Hydrocortisone]	inactive: 1.99
CCCc1nc(C(C)(C)O)c(C(=O)O)n1Cc1ccc(-c2ccccc2-c2nn[nH]n2)cc1	inactive: 3.78
O=C1[C@H](CCC(O)c2ccc(F)cc2)[C@@H](c2ccc(O)cc2)N1c1ccc(F)cc1 (stereo not given in full)	inactive: -1.41
CC(C)COC(=O)c1ccc(N)cc1	inactive: 2.22
O=C(O)[C@]1(Cc2cccc(Nc3nccs3)n2)CC[C@@H](Oc2cccc(Cl)c2F)CC1	inactive: 2.17
COC(=O)C1=C(C)NC(C)=C(C(=O)OC)C1c1ccccc1[N+](=O)[O-] [Nifedipine]	inactive: 0.598
COc1cc2nccc(Oc3ccc(NC(=O)Nc4cc(C)on4)c(Cl)c3)c2cc1OC [Tivozanib (AV-951)]	inactive: 1.39
O=C(Nc1c(Cl)cncc1Cl)c1ccc(OC(F)F)c(OCC2CC2)c1 [Roflumilast]	inactive: 0.0496
CC(C)/N=c1\cc2n(-c3ccc(Cl)cc3)c3ccccc3nc-2cc1Nc1ccc(Cl)cc1	inactive: 2.32
CNc1ccccc1C(=O)N1CCc2c([nH]c3ccccc23)C1=O	inactive: 3.64
O=C(CCc1ccc(O)cc1)c1c(O)cc(O)cc1O [Phloretin (Dihydronaringenin)]	inactive: 1.41
CC(C)C[C@H](NC(=O)CNC(=O)c1cc(Cl)ccc1Cl)B1OC(=O)CC(CC(=O)O)(C(=O)O)O1 (stereo not given in full)	inactive: 4.45
CC[N+](CC)(CC)CCOc1ccc(/C=C/c2ccccc2)cc1.[I-]	inactive: -0.208
CC(C)(C)c1cc(C(C)(C)C)c2c(c1)C(O)(C(F)(F)F)C(=O)O2 (racemic)	inactive: 2.11

Some of the entries above, set out differently:
Compound | cell-cell fusion (z-score)
NCCS(=O)O [Hypotaurine] | inactive: 2.11
O=C1c2ccc(O)c(O)c2C(=O)c2c(O)ccc(O)c21 | inactive: 2.78
COc1cc2nc(N3CCN(C(=O)C4CCCO4)CC3)nc(N)c2cc1OC.Cl (stereo not given) [Terazosin hydrochloride] | inactive: 2.66
CC(=O)NNC(=O)N1Cc2ccccc2Oc2ccc(Cl)cc21 | inactive: 1.25
CCCc1nn(C)c2c(=O)[nH]c(-c3cc(S(=O)(=O)N4CCN(C)CC4)ccc3OCC)nc12.O=C(O)CC(O)(CC(=O)O)C(=O)O [Sildenafil citrate salt] | inactive: 1.72
C=CCc1ccc(O)c(OC)c1 | inactive: 0.484
C[C@]12CCC(=O)C=C1CC[C@@H]1[C@@H]2[C@@H](O)C[C@@]2(C)[C@H]1CC[C@]2(O)C(=O)CO [Hydrocortisone] | inactive: 1.99
CCCc1nc(C(C)(C)O)c(C(=O)O)n1Cc1ccc(-c2ccccc2-c2nn[nH]n2)cc1 | inactive: 3.78
O=C1[C@H](CCC(O)c2ccc(F)cc2)[C@@H](c2ccc(O)cc2)N1c1ccc(F)cc1 (stereo not given in full) | inactive: -1.41
CC(C)COC(=O)c1ccc(N)cc1 | inactive: 2.22
O=C(O)[C@]1(Cc2cccc(Nc3nccs3)n2)CC[C@@H](Oc2cccc(Cl)c2F)CC1 | inactive: 2.17
COC(=O)C1=C(C)NC(C)=C(C(=O)OC)C1c1ccccc1[N+](=O)[O-] [Nifedipine] | inactive: 0.598
COc1cc2nccc(Oc3ccc(NC(=O)Nc4cc(C)on4)c(Cl)c3)c2cc1OC [Tivozanib (AV-951)] | inactive: 1.39
O=C(Nc1c(Cl)cncc1Cl)c1ccc(OC(F)F)c(OCC2CC2)c1 [Roflumilast] | inactive: 0.0496
CC(C)/N=c1\cc2n(-c3ccc(Cl)cc3)c3ccccc3nc-2cc1Nc1ccc(Cl)cc1 | inactive: 2.32
CNc1ccccc1C(=O)N1CCc2c([nH]c3ccccc23)C1=O | inactive: 3.64
